According to article PMC5617834:
Results are given in words; binding and its absence hold for the method and conditions named. Binding seen in cells or lysates may run through a third protein. Some results given as binding are weak or reduced against the parent protein; the word gives no strength. Where a sequence is shown, tags or fusion partners need not be part of it.

By UniProt entry, the sequences of proteins in these tests, tags left out.
UniProt Q96J02: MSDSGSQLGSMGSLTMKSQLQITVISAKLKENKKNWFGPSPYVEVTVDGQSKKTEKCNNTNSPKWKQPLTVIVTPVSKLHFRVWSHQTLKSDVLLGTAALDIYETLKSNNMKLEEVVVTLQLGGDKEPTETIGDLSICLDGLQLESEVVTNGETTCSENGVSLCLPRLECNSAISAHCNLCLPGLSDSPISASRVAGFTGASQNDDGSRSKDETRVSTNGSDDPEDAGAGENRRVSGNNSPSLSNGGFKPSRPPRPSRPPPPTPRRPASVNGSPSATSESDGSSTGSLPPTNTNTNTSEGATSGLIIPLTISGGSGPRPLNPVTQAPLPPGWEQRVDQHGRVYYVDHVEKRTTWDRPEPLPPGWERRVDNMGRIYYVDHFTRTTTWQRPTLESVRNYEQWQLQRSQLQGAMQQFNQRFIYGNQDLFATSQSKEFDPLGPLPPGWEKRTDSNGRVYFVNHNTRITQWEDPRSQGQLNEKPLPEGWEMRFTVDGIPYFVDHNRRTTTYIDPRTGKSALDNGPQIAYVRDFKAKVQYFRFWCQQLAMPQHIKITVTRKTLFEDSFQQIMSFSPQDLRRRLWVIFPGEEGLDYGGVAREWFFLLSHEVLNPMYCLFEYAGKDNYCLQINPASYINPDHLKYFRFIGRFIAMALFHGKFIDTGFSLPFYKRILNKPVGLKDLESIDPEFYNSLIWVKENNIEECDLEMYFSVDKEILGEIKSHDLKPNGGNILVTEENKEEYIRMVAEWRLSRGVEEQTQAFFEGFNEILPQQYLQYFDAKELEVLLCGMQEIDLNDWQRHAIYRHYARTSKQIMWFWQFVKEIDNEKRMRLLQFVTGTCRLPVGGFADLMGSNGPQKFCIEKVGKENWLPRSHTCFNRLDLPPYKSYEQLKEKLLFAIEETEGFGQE

Molecular target: Flag-tagged ITCH (AIP4) E3 ligase (UniProt Q96J02)
Experiment: co-IP; reverse direction: HEK293T cells co-transfected with Flag-ITCH and HA-ARRDC1 or ARRDC1-delPPXY; ITCH pulled down by anti-Flag antibody

B1: HA-tagged ARRDC1 (arrestin domain-containing protein 1) (protein, UniProt Q8N5I2 1-433)
chain: MGRVQLFEISLSHGRVVYSPGEPLAGTVRVRLGAPLPFRAIRVTCIGSCGVSNKANDTAWVVEEGYFNSSLSLADKGSLPAGEHSFPFQFLLPATAPTSFEGPFGKIVHQVRAAIHTPRFSKDHKCSLVFYILSPLNLNSIPDIEQPNVASATKKFSYKLVKTGSVVLTASTDLRGYVVGQALQLHADVENQSGKDTSPVVASLLQKVSYKAKRWIHDVRTIAEVEGAGVKAWRRAQWHEQILVPALPQSALPGCSLIHIDYYLQVSLKAPEATVTLPVFIGNIAVNHAPVSPRPGLGLPPGAPPLVVPSAPPQEEAEAEAAAGGPHFLDPVFLSTKSHSQRQPLLATLSSVPGAPEPCPQDGSPASHPLHPPLCISTGATVPYFAEGSGGPVPTTSTLILPPEYSSWGYPYEAPPSYEQSCGGVEPSLTPES
- binding: binds
